Values of other authors as cited in patent publication US12285404B2, “Prevention of rosacea inflammation” (The Regents of the University of California, priority 2013, dated 2025).
At least one compound was matched to its structure with a doubt left.

System: MMPs
Conditions: Kanada et al., 2012; cited from earlier work

Question: Which “inhibition of MMPs” value does the source give for `C[C@H]1c2cccc(O)c2C(=O)C2=C(O)[C@]3(O)C(=O)C(C(N)=O)=C(O)[C@@H](N(C)C)[C@@H]3[C@@H](O)[C@@H]21` [doxycycline] here?
Answer: inhibits MMPs directly
